Experimental data taken from article PMC8184755.
Results are given in words; binding and its absence hold for the method and conditions named. Binding seen in cells or lysates may run through a third protein. Some entries that bind do so weakly or less than the wild type. For some of these results: Tags and fused reporters may be left off the sequences shown. Blank lines part the entries; values can stand above or below the molecule they belong to.

Chains of the proteins cited; added tags and fusions are not shown. Residues count along the entry.
UniProt Q00560, residues 23-917: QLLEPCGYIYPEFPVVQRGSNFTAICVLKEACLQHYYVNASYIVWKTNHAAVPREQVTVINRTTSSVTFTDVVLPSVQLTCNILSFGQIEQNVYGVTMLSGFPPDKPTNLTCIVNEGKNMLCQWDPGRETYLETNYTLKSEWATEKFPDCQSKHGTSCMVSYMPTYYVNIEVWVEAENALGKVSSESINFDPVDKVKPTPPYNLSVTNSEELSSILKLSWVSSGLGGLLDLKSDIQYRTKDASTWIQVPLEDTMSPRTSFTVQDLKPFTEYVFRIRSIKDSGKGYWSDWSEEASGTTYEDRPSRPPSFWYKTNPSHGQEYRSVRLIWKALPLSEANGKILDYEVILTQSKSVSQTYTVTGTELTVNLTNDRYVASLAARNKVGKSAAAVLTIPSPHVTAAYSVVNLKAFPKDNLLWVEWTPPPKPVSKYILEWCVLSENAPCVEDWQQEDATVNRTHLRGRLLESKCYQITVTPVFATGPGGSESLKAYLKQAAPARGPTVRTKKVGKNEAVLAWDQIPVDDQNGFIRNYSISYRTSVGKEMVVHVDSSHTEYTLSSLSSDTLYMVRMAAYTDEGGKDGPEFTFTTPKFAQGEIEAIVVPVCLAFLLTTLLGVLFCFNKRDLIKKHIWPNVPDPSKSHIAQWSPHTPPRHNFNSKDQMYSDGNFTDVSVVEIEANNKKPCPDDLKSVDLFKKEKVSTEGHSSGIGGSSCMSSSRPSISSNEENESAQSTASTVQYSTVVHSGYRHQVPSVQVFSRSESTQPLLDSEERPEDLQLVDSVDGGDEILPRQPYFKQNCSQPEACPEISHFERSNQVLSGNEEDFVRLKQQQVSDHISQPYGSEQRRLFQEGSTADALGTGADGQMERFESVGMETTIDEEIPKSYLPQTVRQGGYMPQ

Legend:
[1] = target: T1, REG3B in acinar cell lines (lines not named for this experiment) (UniProt P35230); assay: co-IP; co-immunoprecipitation of candidate receptors with REG3B in acinar cell lines (Supplementary Fig. 3d); lines and precipitating antibody not told
T1 sequence: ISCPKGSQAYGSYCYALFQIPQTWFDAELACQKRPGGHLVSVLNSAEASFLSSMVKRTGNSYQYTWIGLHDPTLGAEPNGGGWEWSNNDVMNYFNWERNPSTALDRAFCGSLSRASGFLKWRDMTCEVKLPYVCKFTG

[2] = target: T2, Exostosin-like glycosyltransferase 3 (EXTL3), mouse (mouse (endogenous in mouse primary acinar cells and 266-6)) (UniProt Q9WVL6); assay: co-IP; total lysates (2 mg, pre-cleared) incubated overnight at 4 °C with anti-EXTL3 antibody (20 μg/mL), Protein-G agarose beads; eluates blotted for REG3B; 266-6 and mouse primary acinar cells
T2 sequence: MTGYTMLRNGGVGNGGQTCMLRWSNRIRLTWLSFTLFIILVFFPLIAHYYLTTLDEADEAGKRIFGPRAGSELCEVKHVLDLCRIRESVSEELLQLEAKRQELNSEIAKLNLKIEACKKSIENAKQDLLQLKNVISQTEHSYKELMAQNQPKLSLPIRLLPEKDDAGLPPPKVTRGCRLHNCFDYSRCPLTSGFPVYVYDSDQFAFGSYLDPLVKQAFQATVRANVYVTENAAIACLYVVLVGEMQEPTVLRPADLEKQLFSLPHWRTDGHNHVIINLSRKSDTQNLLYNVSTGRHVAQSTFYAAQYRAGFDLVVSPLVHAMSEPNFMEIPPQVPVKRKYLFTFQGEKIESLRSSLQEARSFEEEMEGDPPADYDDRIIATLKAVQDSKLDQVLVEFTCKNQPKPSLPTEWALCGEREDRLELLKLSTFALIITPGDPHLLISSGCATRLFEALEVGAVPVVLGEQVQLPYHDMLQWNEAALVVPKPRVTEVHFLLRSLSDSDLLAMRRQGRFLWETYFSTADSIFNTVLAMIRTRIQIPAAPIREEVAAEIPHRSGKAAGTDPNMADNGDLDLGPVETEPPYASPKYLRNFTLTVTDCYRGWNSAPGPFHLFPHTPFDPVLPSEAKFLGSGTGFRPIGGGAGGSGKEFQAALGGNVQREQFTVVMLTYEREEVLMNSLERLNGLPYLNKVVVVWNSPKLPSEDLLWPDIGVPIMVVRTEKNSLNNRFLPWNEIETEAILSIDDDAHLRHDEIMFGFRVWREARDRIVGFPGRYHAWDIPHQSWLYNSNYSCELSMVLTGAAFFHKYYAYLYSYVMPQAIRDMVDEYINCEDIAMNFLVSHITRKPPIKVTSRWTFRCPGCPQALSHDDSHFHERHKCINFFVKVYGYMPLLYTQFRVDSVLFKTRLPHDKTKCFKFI

[3] = target: T3, REG3B (mouse) (mouse (endogenous in mouse primary acinar cells and 266-6)) (UniProt P35230); assay: co-IP; total lysates (2 mg, pre-cleared) incubated overnight at 4 °C with anti-REG3B antibody (20 μg/mL), Protein-G agarose beads; eluates blotted for EXTL3; mouse primary acinar cells and AR42J
T3 sequence: T1 sequence

binding [1]: no binding
Molecule: EGFR (from UniProt Q01279 25-1210) (receptor)

binding [1]: no binding
Molecule: GP130 (from UniProt Q00560 23-917) (receptor)

binding [2]: binds
B1: REG3B (mouse) (protein, UniProt P35230 38-175)
chain: T1 sequence

binding [3]: binds
B2: Exostosin-like glycosyltransferase 3 (EXTL3), mouse (receptor, UniProt Q9WVL6 1-918)
chain: T2 sequence
